From PMC10163288
This is one part of the list.

B1: il2ra_site2_3nfp_normal_mot_HHH_b2_05281_000000198_0001_39_56_H_._HHH_b1_03596_0001_0000100006_0000001_0 (protein)
chain: SSSSDEEVEELIREAEELIREGNPEEAKKVLQEATHLAYELRDPRLFFLLAELAYLLEQLSSSSS
B2: il2ra_site2_2erj_sap_27_mot_HHH_b1_04373_af2_000000118_0001_18_33_H_._HHH_b2_03131_0001_0000800063_0000001_0_0001 (protein)
chain: SLEERVEEVAEKLGLPPEVIRKIEELLEELRKEGLPPEEILSILFEEAYEEGDLEVAAVVIDLVQ
B3: il2ra_site1_3nfp_normal_mot_HHH_b1_06045_af2_000000189_0001_3_17_H_._HHH_b1_06127_0001_0000100001_0000001_0_af2pred_0001_af2pred_1 (protein)
chain: SSSSDEESERVLEEAEKLIERLLEEGDPHEAAKVAEEYLRILAELGDPEAKERLLRFALKLSSSS
B4: il2ra_site2_3nfp_normal_mot_HHH_b2_01155_000000159_0001_38_52_H_._HHH_b2_04755_af2_0001_0000100004_0000001_0 (protein)
chain: SSSSDLEERVQELLEEAERLYEEGNPEEVRELLAEATRLAFENRDSRLFMLVAEVAYELYGSSSS
B5: il2ra_site2_3nfp_sap_18_mot_HHH_b1_05437_000000005_0001_40_57_H_._HHH_b1_02393_0001_0000100001_0000001_0_0001_af2pred_0001_af2pred (protein)
chain: SSSSSSEEEKEVEELIEEARKIEDPEEAEEVLHRAATIARELNDTELAQRIAELILKVGSSSSSS
B6: il2ra_site1_3nfp_normal_mot_2d25717a5c0121ea846597d88a9db610_0001_1_af2_000000202_0001_15_29_H_._HHH_b1_01499_0001_0000400042_0000001_1 (protein)
chain: SSSSSSDEDRRIFELLKEANKITDPEEIRELLEEMLELAEERGNEKLFQELRKALEFYSSSSSSS
B7: il2ra_site1_3nfp_sap_17_mot_HHH_b2_05589_af2_000000060_0001_42_57_H_._HHH_b1_07126_af2_0001_0001100021_0000001_1_0001 (protein)
chain: SSSSDEAREAAELVAELAKKKGDWEAAQAWWEVAHRLAKGELSREEAAEILEELAERLKSSSSSS
B8: il2ra_site1_1z92_normal_mot_00a0fa73c9dbd8f1f8571bd9de0225d9_0001_af2_000000011_0001_1_12_H_._ems_ferrM_5132_0002_af2_0001_0000100002_0000001_0_af2pred_0001_af2 … (protein)
chain: SPEYTVEIHGANPEAVRRFAEALGAEVEENGETLTIEVDDPKKAELISKLAEAARVEFELEKSES
B9: il2ra_site1_1z92_sap_15_mot_HHH_b2_01902_af2_000000252_0001_25_40_H_._HHH_b1_08269_0001_0000100004_0000001_1_0001 (protein)
chain: SSSSSRTKEWLKELAESLFRSYRAKGDPKIRELLEFLLRQARLLGNEEAEELIEKLLEELSSSSS
B10: il2ra_site2_2erj_sap_15_mot_HHH_b1_04373_af2_000000118_0001_18_33_H_._df72e6d168b63c4d22c4171a8daa05df_0001_0001_0000300026_0000001_0_0001 (protein)
chain: SSSSSEELRELYELANELMRAVEEGDEEKVEEIFREIEELARRAQSDNAAEIAEHLLRLFNSSSS
B11: il2ra_site1_3nfp_normal_mot_HHH_b2_02159_000000237_0001_1_17_H_._HHH_b2_04693_af2_0001_0000200006_0000001_0_af2pred_0001_af2pred_1 (protein)
chain: SSSSSYAEELVKRAEEIAKELGDEELLRELQELLERAKKEGDPRVFEELVRLAARILLRNRSSSS
B12: il2ra_site2_3nfp_sap_18_mot_HHH_b1_04324_000000249_0001_1_20_H_._HHH_b2_02946_0001_0000200024_0000001_0_0001 (protein)
chain: SDWEEIFQLVARIVALAYERNDHEAFARATELLEKALEAANKNDEEALKEIEEEVRKVLEELESS
B13: il2ra_site2_2erj_normal_mot_HHH_b1_00612_000000025_0001_42_56_H_._HHH_b2_03934_0001_0000600010_0000001_0 (protein)
chain: SSSSDKELWEKVAEASIEALRLFKEGNPEEARELLEELLRELQELNNPDLARYVELARREASSSS
B14: il2ra_site2_3nfp_normal_mot_HHH_b1_08498_000000146_0001_21_37_H_._HHH_b1_08008_0001_0000100001_0000001_0 (protein)
chain: SSSSDEEHLEAATRLIRAAAWALNDPELERRAEELLEEIKEHGDPELKQELAELTHEAFELSSSS
B15: il2ra_site1_2b5i_sap_20_mot_HHH_b1_02657_000000080_0001_1_17_H_._78d38d65aba856c43c32fb61d368d223_0001_0001_0000200013_0000001_0_0001 (protein)
chain: SSSSDHEETREVVRIIWRLMFRFNLSAEKAQELARLAAELLDEGVSVEEIEELLRELAKRLSSSS
B16: il2ra_site1_2b5i_normal_mot_0e5a94e4a5addaac739760efb25f0f5d_0001_000000246_0001_18_32_H_._c3f6a624e0b36238ad1b06fe81c08c0c_0001_1_af2_0001_0000500026_0000001_0 … (protein)
chain: VIEKLADLAEESGDKELIKFVIRLAYEYEKTKDPKYLEQAKTLLELLEKDLEKAKAYMKELKEKK
B17: il2ra_site1_3nfp_normal_mot_HHH_b1_01231_af2_000000170_0001_1_16_H_._HHH_b1_02076_0001_0000200037_0000001_0_af2pred_0001_af2pred_1_swapped (protein)
chain: SSSSSSREELELKERVLRLLARIRDPEEARRVLEEAEELAKELGDERLLEELEKLLKRLGSSSSS
B18: il2ra_site1_2b5i_normal_mot_HHH_b2_04910_000000118_0001_1_19_H_._HHH_b2_05595_af2_0001_0000500031_0000001_1_af2pred_0001_af2pred (protein)
chain: SSSSSLTKEAFRLFEEANRLFRNGNPEEAQKLLEKAEELAEEGNNKSLVKSIRAALRLLESSSSS

What follows are binders tested against il2ra, P01589 (assay: yeast display titration).

Apparent Kd, inactive:
B1 no binding seen
B2 no binding seen
B3 no binding seen
B4 no binding seen
B5 no binding seen
B6 no binding seen
B7 no binding seen
B8 no binding seen
B9 no binding seen
B10 no binding seen
B11 no binding seen
B12 no binding seen
B13 no binding seen
B14 no binding seen
B15 > 6.82 nM
B16 no binding seen
B17 no binding seen
B18 no binding seen

Already shown: entries from further up.
Apparent Kd, inactive:
B2 no binding seen
B3 no binding seen
